The chains behind the UniProt entries cited, without tags or fusion partners. Residues count along the entry.
UniProt P51159: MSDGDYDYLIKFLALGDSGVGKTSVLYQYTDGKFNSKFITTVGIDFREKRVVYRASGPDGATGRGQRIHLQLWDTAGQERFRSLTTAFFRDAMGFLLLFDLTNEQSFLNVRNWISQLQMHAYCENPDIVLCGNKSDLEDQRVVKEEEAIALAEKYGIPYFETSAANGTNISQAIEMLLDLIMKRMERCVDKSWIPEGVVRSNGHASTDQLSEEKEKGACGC
UniProt Q96BY7: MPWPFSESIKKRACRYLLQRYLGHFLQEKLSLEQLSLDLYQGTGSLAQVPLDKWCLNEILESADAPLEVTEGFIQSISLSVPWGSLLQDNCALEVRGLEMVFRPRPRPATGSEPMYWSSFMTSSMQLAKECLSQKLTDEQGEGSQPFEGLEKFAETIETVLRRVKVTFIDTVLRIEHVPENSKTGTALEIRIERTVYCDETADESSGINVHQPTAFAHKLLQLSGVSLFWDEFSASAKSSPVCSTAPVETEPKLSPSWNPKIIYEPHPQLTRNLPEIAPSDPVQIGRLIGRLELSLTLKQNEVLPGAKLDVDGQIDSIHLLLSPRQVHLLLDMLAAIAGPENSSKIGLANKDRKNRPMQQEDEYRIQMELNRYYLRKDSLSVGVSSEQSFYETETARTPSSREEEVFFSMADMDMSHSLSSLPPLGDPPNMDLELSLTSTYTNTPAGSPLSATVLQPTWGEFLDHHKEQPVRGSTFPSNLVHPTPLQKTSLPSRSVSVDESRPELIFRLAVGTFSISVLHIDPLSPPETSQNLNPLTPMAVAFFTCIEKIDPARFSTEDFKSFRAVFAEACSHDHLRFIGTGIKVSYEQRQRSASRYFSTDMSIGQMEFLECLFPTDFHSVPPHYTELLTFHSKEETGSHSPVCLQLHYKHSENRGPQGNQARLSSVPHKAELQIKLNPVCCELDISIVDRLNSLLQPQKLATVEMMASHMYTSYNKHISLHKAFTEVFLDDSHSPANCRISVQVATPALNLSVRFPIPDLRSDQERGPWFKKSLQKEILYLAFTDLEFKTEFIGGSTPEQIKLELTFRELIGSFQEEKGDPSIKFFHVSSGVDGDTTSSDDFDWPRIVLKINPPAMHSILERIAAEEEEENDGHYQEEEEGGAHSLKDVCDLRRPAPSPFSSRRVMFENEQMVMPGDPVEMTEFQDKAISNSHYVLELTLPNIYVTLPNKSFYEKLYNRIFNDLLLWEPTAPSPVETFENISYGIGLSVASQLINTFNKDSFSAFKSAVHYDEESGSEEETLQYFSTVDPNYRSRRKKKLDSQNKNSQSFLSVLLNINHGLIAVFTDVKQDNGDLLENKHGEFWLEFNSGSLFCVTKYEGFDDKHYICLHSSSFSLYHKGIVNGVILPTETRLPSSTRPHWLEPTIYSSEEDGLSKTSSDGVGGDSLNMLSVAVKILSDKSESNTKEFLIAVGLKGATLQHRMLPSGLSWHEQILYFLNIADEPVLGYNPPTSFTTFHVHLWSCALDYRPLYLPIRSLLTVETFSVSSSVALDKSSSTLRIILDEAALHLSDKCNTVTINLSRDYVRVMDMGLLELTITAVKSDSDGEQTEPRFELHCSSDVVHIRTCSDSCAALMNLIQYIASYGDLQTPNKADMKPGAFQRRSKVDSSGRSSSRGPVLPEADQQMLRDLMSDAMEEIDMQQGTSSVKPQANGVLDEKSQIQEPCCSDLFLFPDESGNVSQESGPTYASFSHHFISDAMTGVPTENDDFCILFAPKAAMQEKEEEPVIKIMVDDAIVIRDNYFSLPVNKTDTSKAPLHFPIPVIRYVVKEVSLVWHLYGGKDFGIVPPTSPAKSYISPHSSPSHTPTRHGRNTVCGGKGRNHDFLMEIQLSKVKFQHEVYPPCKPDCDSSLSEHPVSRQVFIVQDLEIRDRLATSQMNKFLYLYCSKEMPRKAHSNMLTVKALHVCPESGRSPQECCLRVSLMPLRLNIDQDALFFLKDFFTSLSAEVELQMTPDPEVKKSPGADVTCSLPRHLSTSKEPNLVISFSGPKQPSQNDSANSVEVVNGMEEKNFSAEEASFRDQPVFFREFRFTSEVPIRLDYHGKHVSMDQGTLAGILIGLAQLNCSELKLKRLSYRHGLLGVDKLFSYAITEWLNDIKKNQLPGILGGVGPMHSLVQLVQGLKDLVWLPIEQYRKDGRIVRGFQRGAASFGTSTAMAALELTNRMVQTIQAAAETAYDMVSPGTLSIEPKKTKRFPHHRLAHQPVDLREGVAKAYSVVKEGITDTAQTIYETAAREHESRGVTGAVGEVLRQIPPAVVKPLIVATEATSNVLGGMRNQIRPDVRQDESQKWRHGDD
UniProt Q9HCH5: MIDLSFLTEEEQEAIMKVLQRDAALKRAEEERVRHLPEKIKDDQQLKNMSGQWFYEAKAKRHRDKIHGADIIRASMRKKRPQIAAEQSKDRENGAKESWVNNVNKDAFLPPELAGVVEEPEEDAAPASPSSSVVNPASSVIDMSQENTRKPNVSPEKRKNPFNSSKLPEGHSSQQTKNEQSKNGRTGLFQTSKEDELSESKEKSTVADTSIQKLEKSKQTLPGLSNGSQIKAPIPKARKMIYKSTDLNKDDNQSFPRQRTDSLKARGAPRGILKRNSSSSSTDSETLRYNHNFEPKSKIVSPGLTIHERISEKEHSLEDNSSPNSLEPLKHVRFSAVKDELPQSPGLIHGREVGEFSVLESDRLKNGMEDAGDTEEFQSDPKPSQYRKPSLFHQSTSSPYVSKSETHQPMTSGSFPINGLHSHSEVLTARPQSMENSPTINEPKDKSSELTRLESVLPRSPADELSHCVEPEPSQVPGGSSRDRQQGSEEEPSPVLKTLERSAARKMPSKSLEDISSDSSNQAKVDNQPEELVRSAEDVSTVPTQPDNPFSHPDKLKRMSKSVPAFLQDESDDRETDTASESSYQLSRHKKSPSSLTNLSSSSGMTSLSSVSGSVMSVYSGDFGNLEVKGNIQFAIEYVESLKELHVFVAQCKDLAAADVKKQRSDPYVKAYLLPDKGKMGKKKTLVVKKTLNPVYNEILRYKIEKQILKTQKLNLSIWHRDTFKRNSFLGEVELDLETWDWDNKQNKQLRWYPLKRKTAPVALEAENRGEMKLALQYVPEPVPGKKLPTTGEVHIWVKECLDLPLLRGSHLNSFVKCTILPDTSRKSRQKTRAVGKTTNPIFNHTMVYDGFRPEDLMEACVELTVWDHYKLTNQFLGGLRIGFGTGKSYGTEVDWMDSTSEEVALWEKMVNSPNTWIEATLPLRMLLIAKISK
UniProt Q8TDW5: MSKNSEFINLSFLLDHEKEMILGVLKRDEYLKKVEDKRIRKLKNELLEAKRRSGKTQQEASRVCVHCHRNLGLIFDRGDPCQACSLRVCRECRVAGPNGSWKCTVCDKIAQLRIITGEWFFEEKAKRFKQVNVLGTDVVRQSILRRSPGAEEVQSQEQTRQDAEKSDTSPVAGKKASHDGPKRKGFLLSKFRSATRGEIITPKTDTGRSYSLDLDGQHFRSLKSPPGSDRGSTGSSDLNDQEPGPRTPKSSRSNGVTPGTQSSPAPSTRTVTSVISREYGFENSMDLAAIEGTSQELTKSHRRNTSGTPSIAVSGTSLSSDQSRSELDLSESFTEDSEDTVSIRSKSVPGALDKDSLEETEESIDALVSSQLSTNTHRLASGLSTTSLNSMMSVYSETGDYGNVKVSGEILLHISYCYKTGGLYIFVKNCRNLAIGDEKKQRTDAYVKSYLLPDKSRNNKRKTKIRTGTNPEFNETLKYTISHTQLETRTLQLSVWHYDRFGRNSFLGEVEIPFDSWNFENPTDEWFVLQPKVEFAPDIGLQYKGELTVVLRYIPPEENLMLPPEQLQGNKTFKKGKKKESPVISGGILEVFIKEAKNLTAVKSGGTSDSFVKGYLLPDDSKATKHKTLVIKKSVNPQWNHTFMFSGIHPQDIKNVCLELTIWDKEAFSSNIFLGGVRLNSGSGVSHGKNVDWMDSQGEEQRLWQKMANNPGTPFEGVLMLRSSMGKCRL
UniProt O15321, residues 28-606: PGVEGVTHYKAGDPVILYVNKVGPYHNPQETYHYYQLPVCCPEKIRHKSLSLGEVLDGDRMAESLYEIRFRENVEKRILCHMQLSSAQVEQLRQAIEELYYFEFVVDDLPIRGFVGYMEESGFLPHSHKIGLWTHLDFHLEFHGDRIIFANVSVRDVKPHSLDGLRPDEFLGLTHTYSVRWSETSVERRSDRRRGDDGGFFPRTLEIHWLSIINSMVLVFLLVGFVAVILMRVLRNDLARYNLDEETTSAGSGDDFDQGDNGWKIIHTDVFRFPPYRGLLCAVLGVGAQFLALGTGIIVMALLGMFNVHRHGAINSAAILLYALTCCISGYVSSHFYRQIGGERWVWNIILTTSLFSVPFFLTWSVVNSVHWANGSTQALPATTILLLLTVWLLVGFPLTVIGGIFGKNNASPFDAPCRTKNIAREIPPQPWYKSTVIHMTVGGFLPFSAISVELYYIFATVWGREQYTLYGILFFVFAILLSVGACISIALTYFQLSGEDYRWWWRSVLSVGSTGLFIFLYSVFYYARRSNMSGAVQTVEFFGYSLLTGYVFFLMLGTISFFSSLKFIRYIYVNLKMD
UniProt Q96GC9: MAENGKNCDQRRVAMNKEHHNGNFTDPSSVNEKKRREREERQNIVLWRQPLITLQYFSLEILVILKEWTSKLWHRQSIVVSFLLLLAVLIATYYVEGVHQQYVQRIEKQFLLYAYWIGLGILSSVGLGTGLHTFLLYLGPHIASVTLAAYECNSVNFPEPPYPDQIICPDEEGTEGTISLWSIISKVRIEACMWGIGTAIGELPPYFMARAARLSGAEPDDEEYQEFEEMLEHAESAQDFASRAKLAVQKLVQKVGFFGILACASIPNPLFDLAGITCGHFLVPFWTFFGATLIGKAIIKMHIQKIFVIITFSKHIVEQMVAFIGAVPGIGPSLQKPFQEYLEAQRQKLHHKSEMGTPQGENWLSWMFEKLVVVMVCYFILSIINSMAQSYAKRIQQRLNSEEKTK
UniProt Q8TDY2: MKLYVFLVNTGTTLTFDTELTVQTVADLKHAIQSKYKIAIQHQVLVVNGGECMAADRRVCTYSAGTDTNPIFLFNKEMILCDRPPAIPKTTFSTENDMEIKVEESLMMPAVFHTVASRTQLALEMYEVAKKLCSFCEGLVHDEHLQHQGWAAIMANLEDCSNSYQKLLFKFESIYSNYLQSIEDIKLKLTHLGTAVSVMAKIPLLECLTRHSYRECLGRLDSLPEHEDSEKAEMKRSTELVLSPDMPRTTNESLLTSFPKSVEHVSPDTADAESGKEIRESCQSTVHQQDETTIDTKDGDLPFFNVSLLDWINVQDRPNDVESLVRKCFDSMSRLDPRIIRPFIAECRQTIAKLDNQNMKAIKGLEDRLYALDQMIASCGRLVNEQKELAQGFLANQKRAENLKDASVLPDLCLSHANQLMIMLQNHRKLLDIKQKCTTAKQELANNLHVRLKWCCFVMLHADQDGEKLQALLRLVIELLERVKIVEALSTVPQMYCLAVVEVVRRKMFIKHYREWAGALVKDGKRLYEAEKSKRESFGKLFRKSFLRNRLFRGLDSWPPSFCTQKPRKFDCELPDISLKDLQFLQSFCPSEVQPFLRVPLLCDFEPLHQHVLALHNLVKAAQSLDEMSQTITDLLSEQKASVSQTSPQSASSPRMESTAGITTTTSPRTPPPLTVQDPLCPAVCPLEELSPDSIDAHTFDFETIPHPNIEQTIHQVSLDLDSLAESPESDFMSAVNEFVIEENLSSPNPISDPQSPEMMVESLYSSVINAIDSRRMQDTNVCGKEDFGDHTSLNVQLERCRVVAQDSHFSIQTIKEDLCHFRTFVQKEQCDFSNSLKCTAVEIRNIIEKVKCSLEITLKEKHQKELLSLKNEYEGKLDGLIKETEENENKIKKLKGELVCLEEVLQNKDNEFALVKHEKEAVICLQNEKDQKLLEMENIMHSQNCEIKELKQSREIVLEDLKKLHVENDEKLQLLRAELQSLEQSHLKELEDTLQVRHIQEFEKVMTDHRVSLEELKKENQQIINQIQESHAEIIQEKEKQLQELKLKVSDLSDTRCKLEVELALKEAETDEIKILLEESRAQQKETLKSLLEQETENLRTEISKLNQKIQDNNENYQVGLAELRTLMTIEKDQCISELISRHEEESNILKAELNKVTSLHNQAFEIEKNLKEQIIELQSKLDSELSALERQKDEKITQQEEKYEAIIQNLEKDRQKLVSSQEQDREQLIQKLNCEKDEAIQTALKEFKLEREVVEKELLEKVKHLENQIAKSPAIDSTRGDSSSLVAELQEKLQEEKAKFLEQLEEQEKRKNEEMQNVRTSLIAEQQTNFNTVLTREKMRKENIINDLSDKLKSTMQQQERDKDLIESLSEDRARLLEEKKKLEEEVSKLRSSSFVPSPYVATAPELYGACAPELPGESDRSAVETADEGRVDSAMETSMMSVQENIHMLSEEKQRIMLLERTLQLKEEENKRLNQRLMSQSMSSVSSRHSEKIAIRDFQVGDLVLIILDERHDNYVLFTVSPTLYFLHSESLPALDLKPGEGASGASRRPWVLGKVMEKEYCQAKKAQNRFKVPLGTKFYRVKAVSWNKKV

According to PMC5323046:

How the values were obtained:
[1] = target: HA-tagged RAB27A (Ras-related protein Rab-27A) (human) (UniProt P51159); test: affinity purification with mass spectrometry; 293T-REx cells inducibly expressing N-terminally HA-tagged baits; lysis in MCLB (50 mM Tris pH 7.4, 150 mM NaCl, 0.5% NP40); anti-HA-agarose, elution with HA peptide, trypsin, LC-MS/MS; CompPASS, HCIPs with WDN >=1 and APSM >=2
HA-tagged RAB27B (human) = target: T1, HA-tagged RAB27B (human) (UniProt O00194); test: as above
T1 sequence: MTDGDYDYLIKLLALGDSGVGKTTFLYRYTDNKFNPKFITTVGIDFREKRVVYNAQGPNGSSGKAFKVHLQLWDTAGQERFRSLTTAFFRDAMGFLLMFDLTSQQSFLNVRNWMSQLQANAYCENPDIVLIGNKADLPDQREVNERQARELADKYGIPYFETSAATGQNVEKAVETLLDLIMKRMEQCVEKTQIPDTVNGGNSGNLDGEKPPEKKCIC

[2] = target: HA-tagged MADD (MAP kinase activating death domain) (human) (UniProt Q8WXG6); test: as above
[3] = target: T2, HA-tagged SMCR8 fragment 1–700 (human) (UniProt Q8TEV9); test: affinity purification with mass spectrometry; 293T cells transiently transfected with HA-tagged full length SMCR8 or fragments; HA-IP followed by mass spectrometric analysis
T2 sequence: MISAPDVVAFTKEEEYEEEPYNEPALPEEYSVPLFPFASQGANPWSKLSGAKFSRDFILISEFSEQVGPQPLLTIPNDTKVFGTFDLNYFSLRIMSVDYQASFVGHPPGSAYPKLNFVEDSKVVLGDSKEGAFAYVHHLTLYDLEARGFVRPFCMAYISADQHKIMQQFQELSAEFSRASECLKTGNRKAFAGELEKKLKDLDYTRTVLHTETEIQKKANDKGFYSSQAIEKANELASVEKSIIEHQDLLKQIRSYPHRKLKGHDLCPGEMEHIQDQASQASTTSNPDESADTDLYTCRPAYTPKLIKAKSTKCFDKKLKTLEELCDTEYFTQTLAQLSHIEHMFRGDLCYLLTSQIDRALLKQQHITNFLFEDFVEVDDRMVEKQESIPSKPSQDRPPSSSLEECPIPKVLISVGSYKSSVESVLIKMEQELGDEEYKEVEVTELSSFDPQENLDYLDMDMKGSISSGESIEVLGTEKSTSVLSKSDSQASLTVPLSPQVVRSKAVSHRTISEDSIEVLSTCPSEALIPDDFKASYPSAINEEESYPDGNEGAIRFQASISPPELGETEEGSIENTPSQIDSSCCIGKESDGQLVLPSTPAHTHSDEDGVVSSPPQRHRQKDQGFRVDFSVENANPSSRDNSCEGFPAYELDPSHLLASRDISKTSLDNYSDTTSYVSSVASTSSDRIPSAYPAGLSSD

[4] = target: T3, HA-tagged full-length SMCR8 (human) (UniProt Q8TEV9); test: as above
T3 sequence: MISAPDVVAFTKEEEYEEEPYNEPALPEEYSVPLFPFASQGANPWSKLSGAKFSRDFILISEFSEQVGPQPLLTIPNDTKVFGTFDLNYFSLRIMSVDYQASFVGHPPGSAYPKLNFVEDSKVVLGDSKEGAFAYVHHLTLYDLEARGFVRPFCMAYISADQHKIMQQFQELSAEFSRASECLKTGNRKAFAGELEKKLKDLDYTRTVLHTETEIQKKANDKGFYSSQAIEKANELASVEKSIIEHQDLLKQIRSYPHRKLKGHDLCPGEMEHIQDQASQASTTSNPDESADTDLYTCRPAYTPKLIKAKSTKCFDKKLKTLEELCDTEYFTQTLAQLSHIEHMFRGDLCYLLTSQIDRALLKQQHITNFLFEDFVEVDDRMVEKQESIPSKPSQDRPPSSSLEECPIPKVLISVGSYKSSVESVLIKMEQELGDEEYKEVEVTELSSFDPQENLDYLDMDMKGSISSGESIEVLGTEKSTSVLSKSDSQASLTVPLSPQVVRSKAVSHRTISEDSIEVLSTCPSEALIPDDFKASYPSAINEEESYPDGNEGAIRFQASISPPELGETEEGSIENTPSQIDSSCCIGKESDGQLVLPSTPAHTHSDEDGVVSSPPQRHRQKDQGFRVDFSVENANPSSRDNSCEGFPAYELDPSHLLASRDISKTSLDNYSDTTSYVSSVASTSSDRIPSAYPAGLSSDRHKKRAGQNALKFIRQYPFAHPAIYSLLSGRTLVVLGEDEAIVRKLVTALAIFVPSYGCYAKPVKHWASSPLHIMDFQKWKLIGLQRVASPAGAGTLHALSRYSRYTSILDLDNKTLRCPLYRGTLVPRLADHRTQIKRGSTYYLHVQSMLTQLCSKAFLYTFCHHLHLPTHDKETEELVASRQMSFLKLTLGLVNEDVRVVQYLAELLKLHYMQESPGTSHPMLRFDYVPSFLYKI

[5] = target: T3, HA-tagged full-length SMCR8 (human); test: affinity purification with mass spectrometry; 293T-REx cells inducibly expressing N-terminally HA-tagged baits; lysis in MCLB (50 mM Tris pH 7.4, 150 mM NaCl, 0.5% NP40); anti-HA-agarose, elution with HA peptide, trypsin, LC-MS/MS; CompPASS, HCIPs with WDN >=1 and APSM >=2

binding [1] | binding (HA-tagged RAB27B (human)) | Substance | also measured
binds |  | ATG2B (from UniProt Q96BY7 1-2078) | 
binds | binds | EXPH5 (from UniProt Q8NEV8 1-1989) | 
 |  | PPP3CB (from UniProt P16298 1-524) | binding [2]: binds
 | binds | SYTL2 (from UniProt Q9HCH5 1-934) | 
binds |  | SYTL5 (from UniProt Q8TDW5 1-730) | 
binds |  | TM9SF1 (from UniProt O15321 28-606) | 
binds |  | VMP1 (from UniProt Q96GC9 1-406) | 
 |  | endogenous FIP200/RB1CC1 (focal adhesion kinase interacting protein of 200 kDa/RB1 inducible coiled-coil1) (from UniProt Q8TDY2 1-1594) | binding [3]: binds; binding [4]: binds; binding [5]: binds
 | binds | endogenous MADD (from UniProt Q8WXG6 1-1647) | 

These are yes or no findings as the source states them, for the method shown. In cells and extracts the contact can be indirect. A yes stands for co-enrichment or nearness to the bait. Other partners may have been found. For part of these data: Where a sequence is shown, tags or fusion partners need not be part of it.
